This assay can be described thus: qHTS Assay to Find Inhibitors of Chronic Active B-Cell Receptor Signaling. The following applies: ABC-DLBCL IkBa-CBG/CBR reporter, luminescence ratio (green luciferase fused to IkBa over red control in TMD8 lymphoma cells), 4 h. In a few lines:
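TMD8 human ABC-DLBCL cells with doxycycline-inducible IκBα–green luciferase fusion and unfused red luciferase, in 0.5% FBS medium; compounds up to 46 uM, 4 h at 37C. Green/red luminescence ratio, filter-overlap corrected, fitted to concentration-response curves.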

Where [1] appears, read: measured here: CBR red luminescence, cell number.

The structures appear in SMILES notation. The list shows a part of the results. These are further read-outs of the screen, such as a control signal, another cell line or another target. No call is given for them. Most of these compounds were active or inconclusive in the main read-out, so they are no random draw. The note in brackets gives the kind of curve behind each potency; many fits are weak.

Take `COc1ccc2nc(NC(=O)c3cc(C)oc3C)sc2c1`: the AC50 under setting [1] is 10.3 µM [falling, partial curve, poor fit]. For the compound `N#Cc1c(N)nc2c(c1-c1ccc3c(c1)OCO3)CCc1ccccc1-2`, the AC50 under setting [1] was 10.3 µM [rising, partial curve]. Same read-out and setting: the value for `COc1cccc(/C=N/N2CCN(c3ccncc3S(=O)(=O)N3CCCCC3)CC2)c1` was 0.206 µM [falling, full curve, poor fit]; that for `COCCNC(=O)c1ccc2c3n(nc2c1)-c1ccccc1CO3` was 7.94 µM [falling, partial curve, poor fit]; that for `CCOC(=O)C1C(=O)CC(C)(O)C(C(=O)OCC)C1c1ccco1` (centres undefined) was 25.9 µM [falling, single point].

Turning to `O=C(CCn1c(=O)sc2ccccc21)Nc1nccs1`, the AC50 under setting [1] is 32.6 µM [falling, single point]. Still for that read-out and setting: the value for `S=C(NCCc1ccccc1)NCc1cccc(Cl)c1` was 6.31 µM [falling, partial curve, poor fit].

Consider `O=C(O)CCn1cc(/C=C/C(=O)c2ccc(Cl)cc2)c(-c2ccc(Br)cc2)n1`, for which the AC50 is, setting by setting: under setting [1], 0.411 µM [falling, partial curve, poor fit]; (measured here: IkBa-CBG green luminescence) 20.6 µM [rising, partial curve, poor fit]. `C(=N\Nc1nc(-c2ccccc2)cs1)/c1cccs1`: the concentration at half-maximal activity (AC50) under setting [1] is 0.0146 µM [falling, full curve, poor fit].

For `O=C(NCCCn1ccnc1)c1ccc(Cl)c(Cl)c1`, under setting [1], the AC50 is 0.1 µM [rising, full curve, poor fit]. On the same count and under the same terms, as for `COc1ccccc1C(c1c(N)n(C)c(=O)n(C)c1=O)C(C)[N+](=O)[O-]` (centres undefined), the figure is 12.6 µM [falling, partial curve, poor fit]; as for `N#CC1=C(SCC(=O)c2ccccc2)NC2=C(C(=O)CCC2)C1c1ccco1` (centres undefined), 35.5 µM [falling, single point].

On to `CCOCCn1ccc2c(OCC(=O)Nc3ccc(OC(F)(F)F)cc3)cccc2c1=O`, for which the AC50 under setting [1] was 10 µM [rising, single point]. Same read-out and setting: as for `CCCN(CCC)C(=O)C1CC(=O)OC12CCCCC2` (centres undefined), the figure is 22.4 µM [rising, single point]. Still for that read-out and setting: as for `COc1ccc(CCNC(=O)C/C(C)=N/NC(=O)c2ccc(N)cc2)cc1OC`, the figure is 2.91 µM [falling, partial curve]; as for `O=C(NC(=S)Nc1ccc(Br)cc1)C1CCC1`, 0.355 µM [rising, partial curve, poor fit]; as for `Cc1cc(C)c2c3c(sc2n1)C(=O)N(Cc1ccccc1)CC(=O)N3`, 6.51 µM [falling, single point]. Still for that read-out and setting: the value for `Nc1nc(-c2cccnc2)nn1C(=O)c1ccc(Cl)cc1` was 4.47 µM [rising, full curve, poor fit].

Source of the values: PubChem BioAssay AID493014 (National Center for Advancing Translational Sciences (NCATS), 2011).
